Literature values in PMC9187652, “Investigating the ligand agonism and antagonism at the D2long receptor by dynamic mass redistribution” (Scientific Reports, 2022).

Target: D2long receptors
Details: cited from earlier work

O=C1CCc2ccc(OCCCCN3CCN(c4cccc(Cl)c4Cl)CC3)cc2N1 [Aripiprazole, aripiprazole]
pEC50 (DMR), obtained by conversion of the reported EC50 value: 6.23
